For two substances, binding results are on record in article PMC6786517.

Amino acid sequences for entries named in this document (tags omitted).
UniProt Q8BWT5: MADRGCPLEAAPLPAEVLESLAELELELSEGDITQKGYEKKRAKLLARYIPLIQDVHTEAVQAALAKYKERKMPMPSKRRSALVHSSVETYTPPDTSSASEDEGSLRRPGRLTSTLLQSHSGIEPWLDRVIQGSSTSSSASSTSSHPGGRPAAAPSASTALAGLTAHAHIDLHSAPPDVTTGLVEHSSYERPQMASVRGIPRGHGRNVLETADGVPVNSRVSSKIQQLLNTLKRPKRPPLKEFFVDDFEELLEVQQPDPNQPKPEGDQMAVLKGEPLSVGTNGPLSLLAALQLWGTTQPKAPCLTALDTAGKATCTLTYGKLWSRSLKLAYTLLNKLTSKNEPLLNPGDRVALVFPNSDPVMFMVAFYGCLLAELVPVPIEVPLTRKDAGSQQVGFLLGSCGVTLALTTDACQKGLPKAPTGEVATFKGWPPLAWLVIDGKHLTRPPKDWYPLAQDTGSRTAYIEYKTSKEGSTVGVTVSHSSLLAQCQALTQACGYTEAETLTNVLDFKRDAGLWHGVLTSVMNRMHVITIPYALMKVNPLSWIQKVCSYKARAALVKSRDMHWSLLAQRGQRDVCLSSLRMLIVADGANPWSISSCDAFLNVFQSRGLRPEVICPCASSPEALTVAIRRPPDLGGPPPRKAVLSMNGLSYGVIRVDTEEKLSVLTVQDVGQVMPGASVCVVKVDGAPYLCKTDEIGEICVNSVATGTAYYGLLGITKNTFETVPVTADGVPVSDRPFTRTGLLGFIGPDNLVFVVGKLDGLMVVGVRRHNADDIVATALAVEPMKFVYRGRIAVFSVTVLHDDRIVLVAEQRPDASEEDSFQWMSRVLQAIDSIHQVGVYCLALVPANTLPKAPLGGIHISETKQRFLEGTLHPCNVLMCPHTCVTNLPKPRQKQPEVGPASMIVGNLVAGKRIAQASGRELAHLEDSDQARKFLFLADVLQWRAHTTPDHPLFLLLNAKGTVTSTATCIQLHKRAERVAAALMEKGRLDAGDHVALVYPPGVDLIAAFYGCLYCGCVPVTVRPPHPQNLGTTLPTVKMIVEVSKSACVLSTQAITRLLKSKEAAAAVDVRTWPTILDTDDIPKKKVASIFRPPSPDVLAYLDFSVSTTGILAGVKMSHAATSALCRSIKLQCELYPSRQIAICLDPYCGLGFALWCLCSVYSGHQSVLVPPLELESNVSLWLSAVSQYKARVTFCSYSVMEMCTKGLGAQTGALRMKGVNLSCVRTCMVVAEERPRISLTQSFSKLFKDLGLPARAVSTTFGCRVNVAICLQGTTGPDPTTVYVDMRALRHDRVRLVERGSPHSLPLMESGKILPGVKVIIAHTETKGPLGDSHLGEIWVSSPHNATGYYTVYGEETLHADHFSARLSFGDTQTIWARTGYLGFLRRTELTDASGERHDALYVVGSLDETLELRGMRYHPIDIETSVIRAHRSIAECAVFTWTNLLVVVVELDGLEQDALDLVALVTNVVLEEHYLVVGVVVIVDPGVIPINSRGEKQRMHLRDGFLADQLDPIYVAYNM
UniProt Q14247: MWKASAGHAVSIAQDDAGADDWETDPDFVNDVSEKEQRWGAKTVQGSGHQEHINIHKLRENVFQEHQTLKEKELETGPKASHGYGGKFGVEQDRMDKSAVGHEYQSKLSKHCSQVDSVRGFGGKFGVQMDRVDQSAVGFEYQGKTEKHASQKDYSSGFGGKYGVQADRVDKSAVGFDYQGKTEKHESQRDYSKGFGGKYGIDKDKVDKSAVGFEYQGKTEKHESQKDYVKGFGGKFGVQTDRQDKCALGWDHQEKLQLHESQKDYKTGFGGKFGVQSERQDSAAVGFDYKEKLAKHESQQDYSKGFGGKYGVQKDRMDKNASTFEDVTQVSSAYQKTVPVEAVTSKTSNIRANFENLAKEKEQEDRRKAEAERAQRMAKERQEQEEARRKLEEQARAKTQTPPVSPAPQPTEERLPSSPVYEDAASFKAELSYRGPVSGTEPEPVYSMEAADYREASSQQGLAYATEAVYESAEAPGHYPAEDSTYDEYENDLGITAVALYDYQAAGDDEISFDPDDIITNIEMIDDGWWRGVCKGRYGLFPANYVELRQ
UniProt Q60598: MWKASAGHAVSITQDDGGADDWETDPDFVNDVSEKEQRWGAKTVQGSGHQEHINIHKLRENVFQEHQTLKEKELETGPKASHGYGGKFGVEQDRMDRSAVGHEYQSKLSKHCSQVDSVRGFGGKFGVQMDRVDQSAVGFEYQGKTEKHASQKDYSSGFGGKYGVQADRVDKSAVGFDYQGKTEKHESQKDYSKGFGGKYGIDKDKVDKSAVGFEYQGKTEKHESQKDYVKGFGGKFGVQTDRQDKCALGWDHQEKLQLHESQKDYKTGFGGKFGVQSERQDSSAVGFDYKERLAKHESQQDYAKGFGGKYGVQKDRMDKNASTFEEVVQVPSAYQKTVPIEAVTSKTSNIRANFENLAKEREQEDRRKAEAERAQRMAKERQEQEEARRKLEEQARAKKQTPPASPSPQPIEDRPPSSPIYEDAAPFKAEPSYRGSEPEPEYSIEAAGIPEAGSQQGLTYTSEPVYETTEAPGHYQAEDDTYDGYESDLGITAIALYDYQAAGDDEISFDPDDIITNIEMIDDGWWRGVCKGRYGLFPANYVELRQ

The target in assay [1] is FLAG-tagged full-length DIP2A (disconnected-interacting protein homolog 2 A) (UniProt Q8BWT5). Put plainly: affinity purification with mass spectrometry; FLAG-DIP2A overexpressed in HEK293 cells, purified with anti-FLAG M2 Affinity Gel, lanes of SDS-PAGE subjected to LC-MS/MS.
For assay [2], the target named is His-tagged DIP2A(1-320) (UniProt Q8BWT5). Put plainly: affinity purification with mass spectrometry; His-DIP2A1-320 pull-down from cerebral cortex lysate; the corresponding lane on SDS-PAGE subjected to LC-MS/MS; only the target purified.

These are yes or no findings as the source states them, for the method shown. Binding seen in cells or lysates may run through a third protein. Here binding means that the protein was enriched with, or labelled near, the bait; the list need not be complete.

On to “cortactin, endogenous in HEK293 cells (from UniProt Q14247 1-550)”, for which the binding entry in assay [1] is recorded as “binds”.
Regarding “endogenous cortactin from murine brain lysate (from UniProt Q60598 1-546)”, the binding result in assay [2] is reported as “binds”.
